# Measurements published in the supplement of paper PMC10398353.
# Values joined by “and” are separate entries in the source; they are usually repeats but may differ in a detail not shown here. Identical values can stand only once. Counter-ions that a name gives are not always drawn. ± gives the standard deviation of the averaged measurements. This is one part of the list. This is a noisy data set.
# System: Salmonella enterica serovar Typhimurium ST313 D23580
# Assay: normalized bacterial growth (OD600 20 h minus 0 h, interquartile-mean normalized) (fraction of plate interquartile mean); higher = more bacterial growth (less inhibition)
# Settings: LPM (pH 5.8, low phosphate, low Mg2+), concentration: 10 µM, temperature: 37 °C
row,Compound,normalized bacterial growth
1,CCCCCCC(=O)OC1CC(C)(C)NC(C)(C)C1 [TMPH hydrochloride],0.813
2,CCCCCC(=O)O[C@]1(C(C)=O)CC[C@H]2[C@@H]3CCC4=CC(=O)CC[C@]4(C)[C@H]3CC[C@@]21C,0.693
3,Oc1cc2c(cc1O)CN(C(=S)NCCc1ccc(Cl)cc1)CCC2 [Capsazepine],0.794
4,O=C(O[C@@H]1Cc2c(O)cc(O)cc2O[C@@H]1c1ccc(O)c(O)c1)c1cc(O)c(O)c(O)c1,0.659
5,Nc1nc(Cl)nc2c1ncn2[C@@H]1O[C@H](COP(=O)(O)OP(=O)(O)OP(=O)(O)O)[C@H](O)C1O (stereo partly drawn) [2-Chloroadenosine triphosphate tetrasodium],0.67
6,NC[C@@H](O)c1ccc(O)c(O)c1 [L(-)-Norepinephrine bitartrate],1.08
7,COc1c(C)c2c(c(O)c1C/C=C(\C)CCC(=O)O)C(=O)OC2,0.799 ± 0.095
8,"CC(=O)NC(CC(=O)O)C(=O)O (racemic) [""Aspartic acid, N-acetyl (R,S)""]",1.08
9,O=C(O)c1ccc(S(=O)(=O)N(Cl)Cl)cc1,1.15
10,O=C(Oc1ccccc1C(=O)O)c1ccccc1O,1.09
11,NS(=O)(=O)c1cc(Cl)c(Cl)c(S(N)(=O)=O)c1 [Dichlorphenamide],1.25
12,CCN1CCCC(OC(=O)C(c2ccccc2)c2ccccc2)C1 (stereo not drawn),0.917
13,Nc1ccc(C(=O)O)cc1,1
14,CN(C)CCCSC(=N)N,1.18
15,NCCNCCNCCN,1.01
16,O=C(NCCN1CCOCC1)c1ccc(Cl)cc1 [Moclobemide],0.613
17,CN1C(=O)OC(C)(C)C1=O [Trimethadione],1.33
18,CC(=O)CCCCn1c(=O)c2c(ncn2C)n(C)c1=O [Pentoxifylline],1.11
19,OCCN1CCN(CCCN2c3ccccc3C=Cc3ccccc32)CC1 [Opipramol dihydrochloride],0.911
20,O=C(O)C=C1CCCc2ccccc2C1O (stereo not drawn),1.04
21,C[C@H]1O[C@@H](n2cc(F)c(=O)[nH]c2=O)[C@H](O)[C@@H]1O [5-fluoro-5'-deoxyuridine],0.455

row,Compound,normalized bacterial growth
1,Clc1ccc(C(c2ccc(Cl)cc2)[n+]2ccn(CC(OCc3ccc(Cl)cc3Cl)c3ccc(Cl)cc3Cl)c2)cc1 (stereo not drawn) [Calmidazolium chloride],0.0556
2,CC1(C)CC[C@]2(C(=O)O)CC[C@]3(C)C(=CC[C@@H]4[C@@]5(C)CC[C@H](O)C(C)(C)[C@@H]5CC[C@]43C)[C@@H]2C1,1.17
3,CCCCNc1cc(C(=O)O)cc(S(N)(=O)=O)c1Oc1ccccc1 [Bumetanide],1.07
4,O=c1c(O)c(-c2ccc(O)cc2)oc2ccccc12,1.1
5,CC(=O)Oc1ccccc1C(=O)Oc1ccccc1C(=O)O,1.16
6,N[C@H](C(=O)O)[C@@H]1CC(Cl)=NO1,0.964
7,CC(C)n1c(/C=C/C(O)CC(O)CC(=O)O)c(-c2ccc(F)cc2)c2ccccc21 (stereo not drawn) [Fluvastatin sodium salt],0.814
8,CCCCCC(O)c1cccc(OCc2ccc3ccccc3n2)c1 (stereo not drawn),1.13
9,COc1ccc(C[C@H](N)C(=O)N[C@H]2[C@@H](O)[C@H](n3cnc4c(N(C)C)ncnc43)O[C@@H]2CO)cc1,1.14 and 0.995
10,COc1ccc(C[C@H](N)C(=O)N[C@H]2[C@@H](O)[C@H](n3cnc4c(N(C)C)ncnc43)O[C@@H]2CO)cc1 [Puromycin dihydrochloride],0.972
11,COc1ccccc1NC(=O)Nc1nc(-c2cccnc2)nc2ccccc12,0.557
12,CCCCC/C=C/CCC(=O)N[C@H]1[C@H](Oc2c3cc4cc2Oc2ccc(cc2Cl)[C@@H](O[C@@H]2O[C@H](CO)[C@@H](O)[C@H](O)[C@H]2NC(C)=O)[C@@H]2NC(=O)[C@H](NC(=O)[C@@H]4NC(=O)[C@H]4NC(=O)C(Cc5ccc(c(Cl)c5)O3)NC(=O)[C@H](N)c3ccc(O)c(c3)Oc3cc(O)cc4c3)c3ccc(O)c(c3)-c3c(OC4O[C@H](CO)[C@@H](O)[C@H](O)[C@@H]4O)cc(O)cc3[C@@H](C(=O)O)NC2=O)O[C@H](CO)[C@@H](O)[C@@H]1O (stereo partly drawn) [TEICOPLANIN [A(2-1) shown]],1.13
13,COCc1nc2c([nH]1)c(=O)n(C)c(=O)n2CC(C)C [8-Methoxymethyl-3-isobutyl-1-methylxanthine],1.08
14,CC12CCc3occc3C1CCC13CC(=O)C(CCC12)C3 (stereo not drawn),0.876
15,Cc1ccnc(NS(=O)(=O)c2ccc(N)cc2)n1,0.928
16,NC(=O)OCC(COC(N)=O)c1ccccc1 [Felbamate],0.986
17,O=c1c(O)c(-c2ccccc2)oc2cccc(O)c12,1.15
18,"CCCCS(=N)(=O)CCC(N)C(=O)O (racemic) [""DL-Buthionine-[S,R]-sulfoximine""]",0.96
19,N=C(N)NCc1cccc(I)c1 [Iobenguane sulfate],1.22
20,NCCCC(O)(P(=O)(O)O)P(=O)(O)O,0.592
21,CNC[C@H](O)[C@@H](O)[C@H](O)[C@H](O)CO [Meglumine],1.18

row,Compound,normalized bacterial growth
1,Nc1ccc(S(=O)(=O)Nc2cnc3ccccc3n2)cc1,0.878
2,CCCCCCCCCC[Si](C)(C)CCC(=O)NC(Cc1ccc(C)cc1)c1ccccc1 (stereo not drawn) [Sandoz 58-035],1.12
3,COc1cccc(-c2cc(=O)c3cc(OC)ccc3o2)c1,0.38
4,O=c1[nH]c2cc(C(F)(F)F)ccc2n1-c1cc(C(F)(F)F)ccc1O,1.31
5,COc1cc(C2Oc3cc([C@H]4Oc5cc(O)cc(O)c5C(=O)[C@@H]4O)ccc3OC2CO)ccc1O (stereo partly drawn),1.01 and 0.782
6,O=c1cc(-c2ccccc2)oc2cc(O)c(O)c(O)c12,0.76
7,N[C@@H](CCCC(=O)O)C(=O)O [L-2-aminoadipic acid],1.38
8,CN(C)CCn1nnnc1SCC1=C(C(=O)O)N2C(=O)[C@@H](NC(=O)Cc3csc(N)n3)[C@H]2SC1 [Cefotiam hydrochloride],0.0245
9,CC(=O)N[C@@H](CS)C(=O)O [N-Acetyl-L-Cysteine],1.08
10,"O=c1cc(-c2ccccc2)[nH]c2nc(Cl)ccc12 [""7-Chloro-4-hydroxy-2-phenyl-1,8-naphthyridine""]",1.2
11,O=c1[nH]c(=O)c2nc3ccccc3nc2[nH]1 [Alloxazine],0.844
12,N#C/C(=C\c1ccc(O)c(O)c1)C(=O)NCCc1ccccc1 [Tyrphostin AG 698],1.13
13,CC(=O)O[C@H]1C[C@@]2(C)[C@@H](C[C@@H](O)[C@H]3[C@@]4(C)CC[C@@H](O)[C@@H](C)[C@@H]4CC[C@@]32C)/C1=C(\CCC=C(C)C)C(=O)O [Fusidic acid sodium salt],0.54
14,CC(=O)O[C@H]1C[C@@]2(C)[C@@H](C[C@@H](O)[C@H]3[C@@]4(C)CC[C@@H](O)[C@@H](C)[C@@H]4CC[C@@]32C)/C1=C(\CCC=C(C)C)C(=O)O,0.555
15,CC(=O)O[C@H]1C[C@@]2(C)[C@@H](C[C@@H](O)[C@H]3[C@@]4(C)CC[C@@H](O)[C@@H](C)[C@@H]4CC[C@@]32C)/C1=C(\CCC=C(C)C)C(=O)O [Fusidic acid sodium],0.535
16,CC(C)C[C@H](N)C(=O)N[C@@H](C)C(=O)O,0.946
17,CCOC(=O)c1c(C)cc(O)c(C=O)c1O,0.904
18,CCN(CC)CCOC(=O)c1ccc(N)cc1 [Procaine hydrochloride],1.07
19,Cn1ccnc1 [1-Methylimidazole],1.14
20,CC[C@H](C)C(=O)O[C@H]1C[C@@H](C)C=C2C=C[C@H](C)[C@H](CC[C@@H]3C[C@@H](O)CC(=O)O3)[C@H]21,0.78
21,Cc1c(C)c2c(c(C)c1O)CCC(C)(C(=O)O)O2 (stereo not drawn) [Trolox],0.698
